Measurements as given in PMC3474958, “pH-sensitive Self-associations of the N-terminal Domain of NBCe1-A Suggest a Compact Conformation under Acidic Intracellular Conditions” (Protein and Peptide Letters, 2012).
These are yes or no findings as the source states them, for the method shown.

Target: cytoplasmic, N-terminal domain of NBCe1-A (residues 1 to 362) (human) (UniProt Q9Y6R1)
Assay: SEC-MALS; ~2 mg/ml (0.5 ml) on Superdex-200 HR 10/30; 50 mM Tris, 150 mM NaCl, 1 mM TCEP; pH 11.5; both purified

B1: cytoplasmic, N-terminal domain of NBCe1-A (residues 1 to 362) (domain or fragment, human, UniProt Q9Y6R1-2 1-362, looked up)
chain: MSTENVEGKPSNLGERGRARSSTFLRVVQPMFNHSIFTSAVSPAAERIRFILGEEDDSPAPPQLFTELDELLAVDGQEMEWKETARWIKFEEKVEQGGERWSKPHVATLSLHSLFELRTCMEKGSIMLDREASSLPQLVEMIVDHQIETGLLKPELKDKVTYTLLRKHRHQTKKSNLRSLADIGKTVSSASRMFTNPDNGSPAMTHRNLTSSSLNDISDKPEKDQLKNKFMKKLPRDAEASNVLVGEVDFLDTPFIAFVRLQQAVMLGALTEVPVPTRFLFILLGPKGKAKSYHEIGRAIATLMSDEVFHDIAYKAKDRHDLIAGIDEFLDEVIVLPPGEWDPAIRIEPPKSLPSSDKRKNM
notes: NBCe1-A, sodium-bicarbonate cotransporter variant 1A (SLC4 family), cytoplasmic N-terminal domain, residues 1 to 362; theoretical mass of the monomer 40.6 kDa, of the dimer 81.2 kDa; Exists in a concentration- and pH-dependent equilibrium of monomer, dimer and higher-order clusters; also called NtNBCe1-A; NtNBCe1
B1 was tested, and the binding was “no binding (condition: at pH 11.5)”.
